Measurements from article PMC5352711.
These are yes or no findings as the source states them, for the method shown. In cells and extracts the contact can be indirect. Some results given as binding are weak or reduced against the parent protein; the word gives no strength.

The chains behind the UniProt entries cited, without tags or fusion partners. Where a name states a change or a piece, a line headed by the entry shows the natural chain unless it says otherwise.
UniProt P11275: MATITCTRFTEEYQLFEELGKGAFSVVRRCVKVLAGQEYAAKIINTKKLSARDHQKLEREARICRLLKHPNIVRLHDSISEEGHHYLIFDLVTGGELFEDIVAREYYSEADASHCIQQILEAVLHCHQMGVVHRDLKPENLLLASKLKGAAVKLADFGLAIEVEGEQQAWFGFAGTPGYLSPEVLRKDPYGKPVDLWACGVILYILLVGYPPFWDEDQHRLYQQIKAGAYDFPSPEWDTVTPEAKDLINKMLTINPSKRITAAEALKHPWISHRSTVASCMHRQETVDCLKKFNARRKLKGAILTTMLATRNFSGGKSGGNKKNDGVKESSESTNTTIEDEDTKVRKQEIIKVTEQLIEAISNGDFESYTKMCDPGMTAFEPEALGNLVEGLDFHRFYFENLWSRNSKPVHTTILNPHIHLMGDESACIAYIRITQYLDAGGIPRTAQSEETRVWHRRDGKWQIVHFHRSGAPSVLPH
UniProt Q8CFN5: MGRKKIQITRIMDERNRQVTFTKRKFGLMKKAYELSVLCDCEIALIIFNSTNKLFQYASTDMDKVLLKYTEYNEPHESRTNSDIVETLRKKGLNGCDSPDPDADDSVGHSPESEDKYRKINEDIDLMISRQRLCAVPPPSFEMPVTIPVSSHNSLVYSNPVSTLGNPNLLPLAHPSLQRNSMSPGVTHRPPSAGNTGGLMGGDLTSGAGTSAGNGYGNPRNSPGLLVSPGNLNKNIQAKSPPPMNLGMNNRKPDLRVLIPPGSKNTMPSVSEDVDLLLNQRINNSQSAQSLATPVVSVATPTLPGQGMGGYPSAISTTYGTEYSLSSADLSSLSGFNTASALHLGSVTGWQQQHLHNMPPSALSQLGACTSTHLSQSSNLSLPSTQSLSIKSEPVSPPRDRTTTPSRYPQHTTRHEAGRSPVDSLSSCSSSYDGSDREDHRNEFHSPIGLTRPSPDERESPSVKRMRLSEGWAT

Tests used:
[1] = molecular target: DaCaMKII::eGFP (CaMKII-T286D C-terminal fused to eGFP) (rat) (UniProt P11275); assay: co-IP; GFP monoclonal antibody magnetic beads pull on DaCaMKII::eGFP; lysates of HEK293 cells co-transfected with Mef2c-Myc and DaCaMKII::eGFP at 4:3 ratio; 150 ug protein, 15 min at 4 C; 4 washes with 50 mM Tris-HCl pH 7.5, 150 mM NaCl, 1% NP-40; blot with anti-myc
Mef2c-Myc = Mef2c-Myc (UniProt Q8CFN5); assay: co-IP; Myc-magnetic beads pull on Mef2c::Myc; DaCaMKII::GFP detected by immunoblot in the bound fraction; data not shown

Substance	binding [1]	binding (Mef2c-Myc)
Mef2c-Myc (from UniProt Q8CFN5 1-474)	binds	–
DaCaMKII::eGFP (CaMKII-T286D C-terminal fused to eGFP) (from UniProt P11275 1-478) (enzyme)	–	binds
